Laboratory results published in publication PMC11683240.
No constants are given. Whether binding was seen depends on the method and setting.

Chains of the proteins cited; added tags and fusions are not shown. Residues count along the entry.
UniProt P01009, residues 25-418: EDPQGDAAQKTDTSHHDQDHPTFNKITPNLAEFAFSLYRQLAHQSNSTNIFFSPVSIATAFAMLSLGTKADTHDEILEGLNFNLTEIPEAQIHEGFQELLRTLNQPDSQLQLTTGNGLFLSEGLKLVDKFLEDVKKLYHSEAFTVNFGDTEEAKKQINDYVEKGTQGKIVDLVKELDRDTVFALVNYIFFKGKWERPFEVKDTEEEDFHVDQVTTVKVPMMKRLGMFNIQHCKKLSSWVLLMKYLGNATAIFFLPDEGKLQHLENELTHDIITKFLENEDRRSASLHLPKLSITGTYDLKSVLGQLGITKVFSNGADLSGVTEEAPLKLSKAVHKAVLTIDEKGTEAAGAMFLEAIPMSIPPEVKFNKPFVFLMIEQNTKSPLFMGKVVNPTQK
UniProt P04977, residues 35-269: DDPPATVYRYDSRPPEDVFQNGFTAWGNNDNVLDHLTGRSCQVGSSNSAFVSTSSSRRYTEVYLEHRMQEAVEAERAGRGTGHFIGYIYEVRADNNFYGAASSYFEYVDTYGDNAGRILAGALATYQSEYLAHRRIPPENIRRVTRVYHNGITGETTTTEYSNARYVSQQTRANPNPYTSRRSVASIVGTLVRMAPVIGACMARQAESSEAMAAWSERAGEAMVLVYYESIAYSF

Molecular target: α1-antitrypsin (Prolastin, plasma-derived) (human) (UniProt P01009)
Assay: far-Western, overlay or dot blot; both purified

Substance: recombinant PTS1 (enzyme subunit of pertussis toxin) (from UniProt P04977 35-269)
- binding: no binding (tested: 200 ng/ml = 0.0007616 μM)
